From the supplement of paper PMC4604168 (melanoma cell lines)
The other results are listed elsewhere or left out. Single values are uncertain, as repeats are few or missing.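 The apoptosis fraction was the count of cleaved-PARP antibody-stained nuclei relative to all DNA-stained nuclei, imaged in 1,536-well plates. Screening doses were set so most cells survived, and baseline and induced cleaved-PARP levels vary greatly across cell lines.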

Tests used:
Test in all cases: cleaved PARP positive nuclei fraction relative to DMSO control; melanoma cells; higher = more apoptosis
Details in all cases: library dose: low library concentration; 72 h
MZ2-MEL = test system: MZ2-MEL
MeWo = test system: MeWo
RPMI7951 = test system: RPMI7951
RVH-421 = test system: RVH-421
SkMel28 = test system: SkMel28
SkMel30 = test system: SkMel30
SkMel5 = test system: SkMel5
UACC257 = test system: UACC257
UACC62 = test system: UACC62

| SMILES | cleaved PARP positive nuclei fraction (MZ2-MEL) | cleaved PARP positive nuclei fraction (MeWo) | cleaved PARP positive nuclei fraction (RPMI7951) | cleaved PARP positive nuclei fraction (RVH-421) | cleaved PARP positive nuclei fraction (SkMel28) | cleaved PARP positive nuclei fraction (SkMel30) | cleaved PARP positive nuclei fraction (SkMel5) | cleaved PARP positive nuclei fraction (UACC257) | cleaved PARP positive nuclei fraction (UACC62) |
| --- | --- | --- | --- | --- | --- | --- | --- | --- | --- |
| C[As](C)SC[C@H](NC(=O)CC[C@H](N)C(=O)O)C(=O)NCC(=O)O [Darinaparsin] + Oc1nc(-c2ccc(C(F)(F)F)cc2)nc2c1CSCC2 [XAV939] (first compound 0.4 µM, partner dose 2 µM) | 226% | 100% | 135% | 24.5% | 226% | 19.3% | 31.4% | 89% | 55.4% |
| Cc1cc(N2CCOCC2)cc2[nH]c(-c3c(NC[C@@H](O)c4cccc(Cl)c4)cc[nH]c3=O)nc12 + Cc1cc(SCc2sc(-c3ccc(C(F)(F)F)c(F)c3)nc2C)ccc1OCC(=O)O [GW0742] (first compound 0.2 µM, partner dose 2 µM) | 195% | 108% | 116% | 58.9% | 130% | 113% | 67.9% | 212% | 140% |
| C[As](C)SC[C@H](NC(=O)CC[C@H](N)C(=O)O)C(=O)NCC(=O)O [Darinaparsin] + c1cc(-c2cnn3cc(-c4ccc(OCCN5CCCCC5)cc4)cnc23)ccn1 [Dorsomorphin] (first compound 0.4 µM, partner dose 0.4 µM) | 44% | 55.7% | 78.3% | 89.4% | 119% | 47.8% | 46.1% | 105% | 71.7% |
| O=C(O)C(=O)Nc1sc2c(c1C(=O)O)CCNC2 + O=C(Oc1ccc([N+](=O)[O-])cc1)N1CCC(C(O)(c2ccc3c(c2)OCO3)c2ccc3c(c2)OCO3)CC1 [JZL184] (first compound 1.66667 µM, partner dose 1 µM) | 74.1% | 23.4% | 88.1% | 84.8% | 74.5% | 107% | 69.7% | 138% | 74.4% |
| C[As](C)SC[C@H](NC(=O)CC[C@H](N)C(=O)O)C(=O)NCC(=O)O [Darinaparsin] + CCN(CC)CCCCNc1ncc2cc(-c3cc(OC)cc(OC)c3)c(NC(=O)NC(C)(C)C)nc2n1 [PD173074] (first compound 0.4 µM, partner dose 0.1 µM) | 64% | 50.6% | 56.1% | 95.2% | 126% | 24% | 64.1% | 151% | 25.6% |
| C#Cc1cccc(Nc2ncnc3cc(OCCOC)c(OCCOC)cc23)c1 [erlotinib] + C/C(O)=C(\C#N)C(=O)Nc1cc(Br)ccc1Br [LFM-A13] (first compound 0.8 µM, partner dose 2 µM) | 108% | 505% | 94.4% | 77.2% | 144% | 46.6% | 108% | 213% | 195% |
| C[C@]12O[C@H](C[C@]1(O)CO)n1c3ccccc3c3c4c(c5c6ccccc6n2c5c31)CNC4=O [Lestaurtinib] + CCN(CC)CCCCNc1ncc2cc(-c3cc(OC)cc(OC)c3)c(NC(=O)NC(C)(C)C)nc2n1 [PD173074] (first compound 0.004 µM, partner dose 0.1 µM) | 78.6% | 47% | 53.3% | 128% | 163% | 86.8% | 34.8% | 289% | 135% |
| O=C(Nc1ccccc1)c1cc([N+](=O)[O-])ccc1Cl + O=C(Oc1ccc([N+](=O)[O-])cc1)N1CCC(C(O)(c2ccc3c(c2)OCO3)c2ccc3c(c2)OCO3)CC1 [JZL184] (first compound 2 µM, partner dose 1 µM) | 70.6% | 98.9% | 85.5% | 49.7% | 157% | 64.1% | 60.4% | 80.1% | 86.3% |
| Cn1c(Nc2ccc(C(F)(F)F)cc2)nc2cc(Oc3ccnc(-c4ncc(C(F)(F)F)[nH]4)c3)ccc21 + Cc1cc(SCc2sc(-c3ccc(C(F)(F)F)c(F)c3)nc2C)ccc1OCC(=O)O [GW0742] (first compound 0.08 µM, partner dose 2 µM) | 350% | 396% | 74.6% | 231% | 97.3% | 92.1% | 3850% | 67.7% | 475% |
| O=C(O)c1ccc(-c2c[nH]c3ncc(-c4ccccc4)cc23)cc1C1CCCC1 + C/C(O)=C(\C#N)C(=O)Nc1cc(Br)ccc1Br [LFM-A13] (first compound 0.16 µM, partner dose 2 µM) | 131% | 61.6% | 43% | 61.3% | 43.8% | 125% | 19% | 80.7% | 121% |
| C[C@]12O[C@H](C[C@]1(O)CO)n1c3ccccc3c3c4c(c5c6ccccc6n2c5c31)CNC4=O [Lestaurtinib] + Cc1cc(N2CCOCC2)cc2[nH]c(-c3c(NC[C@@H](O)c4cccc(Cl)c4)cc[nH]c3=O)nc12 [BMS536924] (first compound 0.004 µM, partner dose 0.2 µM) | 140% | 122% | 58.4% | 36.7% | 164% | 169% | 40.1% | 166% | 91.2% |
| Cn1cncc1[C@@](N)(c1ccc(Cl)cc1)c1ccc2c(c1)c(-c1cccc(Cl)c1)cc(=O)n2C [tipifarnib] + O=C(Oc1ccc([N+](=O)[O-])cc1)N1CCC(C(O)(c2ccc3c(c2)OCO3)c2ccc3c(c2)OCO3)CC1 [JZL184] (first compound 0.01 µM, partner dose 1 µM) | 183% | 36.3% | 90.1% | 53.4% | 71.3% | 78.7% | 220% | 20.8% | 34.8% |
| OCCn1cc(-c2cnc3nnn(Cc4ccc5ncccc5c4)c3n2)cn1 + Cc1cc(SCc2sc(-c3ccc(C(F)(F)F)c(F)c3)nc2C)ccc1OCC(=O)O [GW0742] (first compound 1 µM, partner dose 2 µM) | 27.9% | 49.1% | 165% | 41.5% | 191% | 47.3% | 229% | 104% | 40.4% |
| COc1ccc(-c2ccc3c(N4CCOCC4)nc(N4C[C@@H](C)O[C@@H](C)C4)nc3n2)cc1CO + C/C(O)=C(\C#N)C(=O)Nc1cc(Br)ccc1Br [LFM-A13] (first compound 0.02 µM, partner dose 2 µM) | 154% | 29.4% | 48.3% | 221% | 191% | 23.3% | 109% | 83.3% | 171% |
| C[C@]12O[C@H](C[C@]1(O)CO)n1c3ccccc3c3c4c(c5c6ccccc6n2c5c31)CNC4=O [Lestaurtinib] + O=C(Nc1ccccc1)c1cc([N+](=O)[O-])ccc1Cl [GW9662] (first compound 0.004 µM, partner dose 2 µM) | 73.7% | 49.2% | 64.3% | 128% | 67.9% | 141% | 74.8% | 109% | 93.2% |
| COc1ccc2c(c1)CCC1C2CCC2(C)C(NCCCCCCN3C(=O)C=CC3=O)CCC12 (configuration not stated) + Cc1cc(SCc2sc(-c3ccc(C(F)(F)F)c(F)c3)nc2C)ccc1OCC(=O)O [GW0742] (first compound 0.4 µM, partner dose 2 µM) | 131% | 43.1% | 44.5% | 108% | 59.1% | 84.8% | 44.1% | 53.4% | 64.6% |
| C[C@]12O[C@H](C[C@]1(O)CO)n1c3ccccc3c3c4c(c5c6ccccc6n2c5c31)CNC4=O [Lestaurtinib] + COc1ccc2c(c1)CCC1C2CCC2(C)C(NCCCCCCN3C(=O)C=CC3=O)CCC12 [U73122] (first compound 0.004 µM, partner dose 0.4 µM) | 56.4% | 251% | 174% | 49.7% | 157% | 45.7% | 73.6% | 191% | 115% |
| CO[C@@H]1[C@H](N(C)C(=O)c2ccccc2)C[C@H]2O[C@]1(C)n1c3ccccc3c3c4c(c5c6ccccc6n2c5c31)C(=O)NC4 [Midostaurin] + O=C(Oc1ccc([N+](=O)[O-])cc1)N1CCC(C(O)(c2ccc3c(c2)OCO3)c2ccc3c(c2)OCO3)CC1 [JZL184] (first compound 0.08 µM, partner dose 1 µM) | 99.3% | 79.3% | 39.4% | 78.4% | 98.7% | 19.1% | 106% | 110% | 137% |
| C[As](C)SC[C@H](NC(=O)CC[C@H](N)C(=O)O)C(=O)NCC(=O)O [Darinaparsin] + Cc1cc([N+](=O)[O-])ccc1NS(=O)(=O)c1cc(Cl)ccc1Cl [FH535] (first compound 0.4 µM, partner dose 1 µM) | 94.4% | 81.6% | 132% | 55.7% | 110% | 62.1% | 252% | 167% | 179% |
| Cc1cc(SCc2sc(-c3ccc(C(F)(F)F)c(F)c3)nc2C)ccc1OCC(=O)O + CCCCCCCCCCCC1=C(O)C(=O)C=C(O)C1=O [Embelin] (first compound 2 µM, partner dose 1.2 µM) | 130% | 65.6% | 87.7% | 25.5% | 71.6% | 36.4% | 55.3% | 102% | 145% |
| O=C(Oc1ccc([N+](=O)[O-])cc1)N1CCC(C(O)(c2ccc3c(c2)OCO3)c2ccc3c(c2)OCO3)CC1 + O=c1cc(-c2cccc3c2Sc2ccccc2S3)oc(N2CCOCC2)c1 [KU55933] (first compound 1 µM, partner dose 1 µM) | 76.1% | 188% | 40.7% | 93.7% | 167% | 264% | 62.1% | 129% | 178% |
| CC1(C)NC(=O)N(c2ccc([N+](=O)[O-])c(C(F)(F)F)c2)C1=O [nilutamide] + Cc1cc(SCc2sc(-c3ccc(C(F)(F)F)c(F)c3)nc2C)ccc1OCC(=O)O [GW0742] (first compound 1 µM, partner dose 2 µM) | 76.9% | 180% | 78.6% | 80.2% | 52.8% | 39.6% | 77.4% | 153% | 154% |
| O=C(O)c1ccc(-c2c[nH]c3ncc(-c4ccccc4)cc23)cc1C1CCCC1 + O=C(Oc1ccc([N+](=O)[O-])cc1)N1CCC(C(O)(c2ccc3c(c2)OCO3)c2ccc3c(c2)OCO3)CC1 [JZL184] (first compound 0.16 µM, partner dose 1 µM) | 67.8% | 57.5% | 159% | 94.1% | 75.9% | 69.5% | 29.1% | 144% | 42.6% |

A few values from the entries so far:
O=C(Oc1ccc([N+](=O)[O-])cc1)N1CCC(C(O)(c2ccc3c(c2)OCO3)c2ccc3c(c2)OCO3)CC1 + O=c1cc(-c2cccc3c2Sc2ccccc2S3)oc(N2CCOCC2)c1 [KU55933] (first compound 1 µM, partner dose 1 µM) | cleaved PARP positive nuclei fraction (RPMI7951): 40.7%
C[C@]12O[C@H](C[C@]1(O)CO)n1c3ccccc3c3c4c(c5c6ccccc6n2c5c31)CNC4=O [Lestaurtinib] + COc1ccc2c(c1)CCC1C2CCC2(C)C(NCCCCCCN3C(=O)C=CC3=O)CCC12 [U73122] (first compound 0.004 µM, partner dose 0.4 µM) | cleaved PARP positive nuclei fraction (SkMel5): 73.6%
